Assay results as given in paper PMC7033728.
Results are given in words; binding and its absence hold for the method and conditions named. In cells and extracts the contact can be indirect. Some results given as binding are weak or reduced against the parent protein; the word gives no strength.

Protein sequences, listed by entry. Tags and fused reporters are not part of them. Lines headed by an entry give the natural chain unless they say otherwise; changes in a name come on top.
UniProt Q08211: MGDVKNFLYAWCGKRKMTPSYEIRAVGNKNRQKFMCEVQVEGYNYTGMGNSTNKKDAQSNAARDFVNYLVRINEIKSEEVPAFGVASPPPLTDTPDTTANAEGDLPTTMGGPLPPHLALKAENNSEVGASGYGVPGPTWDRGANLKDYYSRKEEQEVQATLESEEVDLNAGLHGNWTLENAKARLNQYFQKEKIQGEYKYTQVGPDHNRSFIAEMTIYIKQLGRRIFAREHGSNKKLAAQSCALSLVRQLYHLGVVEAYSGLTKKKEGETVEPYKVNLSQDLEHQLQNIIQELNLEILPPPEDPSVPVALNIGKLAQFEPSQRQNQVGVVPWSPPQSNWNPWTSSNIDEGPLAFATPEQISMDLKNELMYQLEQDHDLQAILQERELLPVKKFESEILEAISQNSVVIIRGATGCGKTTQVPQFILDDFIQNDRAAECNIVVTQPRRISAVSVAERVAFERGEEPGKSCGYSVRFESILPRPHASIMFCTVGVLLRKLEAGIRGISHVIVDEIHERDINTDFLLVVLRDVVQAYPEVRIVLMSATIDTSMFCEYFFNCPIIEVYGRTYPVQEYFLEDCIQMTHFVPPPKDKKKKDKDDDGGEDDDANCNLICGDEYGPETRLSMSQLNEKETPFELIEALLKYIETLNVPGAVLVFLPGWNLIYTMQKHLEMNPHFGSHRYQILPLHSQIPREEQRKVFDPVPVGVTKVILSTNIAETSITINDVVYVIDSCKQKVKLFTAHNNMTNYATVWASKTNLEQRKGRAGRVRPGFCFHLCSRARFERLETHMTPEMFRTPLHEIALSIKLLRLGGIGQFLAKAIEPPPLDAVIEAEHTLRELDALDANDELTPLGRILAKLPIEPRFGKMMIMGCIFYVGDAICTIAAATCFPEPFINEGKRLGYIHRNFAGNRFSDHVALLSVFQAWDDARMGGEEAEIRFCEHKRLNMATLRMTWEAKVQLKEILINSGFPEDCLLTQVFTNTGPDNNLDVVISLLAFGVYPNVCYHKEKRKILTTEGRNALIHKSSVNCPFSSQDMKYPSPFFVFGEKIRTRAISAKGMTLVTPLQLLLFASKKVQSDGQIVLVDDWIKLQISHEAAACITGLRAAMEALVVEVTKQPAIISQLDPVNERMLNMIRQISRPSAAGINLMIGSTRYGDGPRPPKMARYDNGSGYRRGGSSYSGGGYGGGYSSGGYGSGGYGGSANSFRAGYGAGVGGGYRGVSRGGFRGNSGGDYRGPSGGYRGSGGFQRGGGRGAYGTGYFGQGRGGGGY
UniProt Q9UH17: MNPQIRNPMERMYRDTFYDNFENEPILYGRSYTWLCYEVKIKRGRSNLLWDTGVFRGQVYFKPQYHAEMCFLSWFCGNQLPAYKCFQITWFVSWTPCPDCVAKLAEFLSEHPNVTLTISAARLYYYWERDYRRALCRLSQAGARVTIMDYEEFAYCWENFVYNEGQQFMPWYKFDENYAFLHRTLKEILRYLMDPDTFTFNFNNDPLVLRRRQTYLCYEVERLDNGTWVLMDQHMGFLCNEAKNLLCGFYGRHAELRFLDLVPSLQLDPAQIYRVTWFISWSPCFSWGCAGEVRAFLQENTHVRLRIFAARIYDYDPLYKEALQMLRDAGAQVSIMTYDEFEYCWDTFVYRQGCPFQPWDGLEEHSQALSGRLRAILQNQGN

Assays:
[1] = target: Flag-tagged DExD/H-box helicase 9 (DHX9), wild type (human) (UniProt Q08211); experiment: co-IP; reverse co-IP, HEK293T cotransfected with HA-A3B and Flag-DHX9; RIPA lysate; IP with anti-Flag antibody
[2] = target: Flag-tagged DExD/H-box helicase 9 (DHX9), wild type (human) (UniProt Q08211); experiment: co-IP; Huh7 cotransfected with HA-A3B and Flag-DHX9 in the absence or presence of the HBV replication plasmid (gtD); co-IP as Figure 2(B) (anti-Flag antibody)
[3] = target: Flag-tagged DExD/H-box helicase 9 (DHX9), wild type (human) (UniProt Q08211); experiment: co-IP; HEK293T cotransfected with HA-A3B and Flag-DHX9 WT or truncation mutants; lysates used for co-IP; A3B pulled down by the DHX9 proteins; IP antibody not named

Measured: binding

HA-tagged APOBEC3B (A3B) (from UniProt Q9UH17 1-382)
binds: all assays above
